The other results are listed elsewhere or left out. These are further read-outs of the screen, such as a control signal, another cell line or another target. No call is given for them. The list favours compounds with an active or inconclusive main result. The note in brackets gives the kind of curve behind each potency; many fits are weak.

The assay can be described thus: qHTS Assay for Modulators of Lamin A Splicing. The note with it: HeLa LMNA splicing GFP/RFP minigene ratio, 48 h. Put shortly:
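Read-out is the ratio of GFP to DsRed2 object intensity, acquired by 488 nm laser-scanning cytometry on HeLa lamin A-EGFP minigene reporter cells. Compound incubation 48 hrs at 37 °C in Opti-MEM with 2% FBS; DMSO 0.5% final.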

Where [1] appears, read: measured here: RFP viability control channel.
Where [2] appears, read: measured here: GFP splicing reporter channel.

Turning to `c1ccc2c(CCNc3ncnc4nc[nH]c34)cccc2c1`, the AC50 under setting [1] was 3.16 µM [rising, full curve].

For `CC(C)(CCl)C(=O)Nc1ccc(C(F)(F)F)cc1`, the AC50 under setting [1] was 35.5 µM [falling, partial curve, poor fit].

For `CCN(CC)C(=O)N1CCN(C)CC1`, the AC50 under setting [2] was 3.16 µM [rising, partial curve] and the AC50 under setting [1] was 11.2 µM [rising, partial curve, poor fit].

On to `CCc1ccc(Nc2nnc(SCC(=O)Nc3cccc(S(=O)(=O)NC4=NCCCCC4)c3)s2)cc1`, for which, under setting [1], the AC50 was 14.1 µM [rising, partial curve].

On to `Cc1ccccc1NC(=O)Cn1cccc1`, for which the AC50 under setting [1] is 2.82 µM [falling, single point].

Consider `Nc1ccc(N=Nc2ccccc2)c(N)n1`, for which the AC50 is 1 µM [falling, full curve] under setting [2] and 1 µM [falling, full curve] under setting [1].

For `Cc1ccc(-n2c(CNC(=O)c3cccs3)nnc2SCC(=O)NO)cc1`, the AC50 under setting [2] was 7.08 µM [falling, partial curve, poor fit] and the AC50 under setting [1] is 6.31 µM [falling, partial curve, poor fit].

For `Cc1cc(C)n2nc(SCC(=O)N/N=C/c3cccc(Br)c3)nc2n1`, the AC50 under setting [2] was 15.8 µM [rising, single point].

As to `Cc1ccc(N2CCN(C(=O)c3cnn(-c4ccc(F)cc4F)c3C3CCN(C(=O)OC(C)(C)C)CC3)CC2)c(C)c1`, the half-maximal activity concentration (AC50) under setting [1] is 12.6 µM [rising, single point].

For the compound `CCCS(=O)(=O)N1CCN(Cc2ccc([N+](=O)[O-])cc2)CC1`, the AC50 under setting [1] is 14.1 µM [rising, partial curve, poor fit].

As for `O=[N+]([O-])c1ccc(Cl)c(CN2CCSCC2)c1`, the AC50 under setting [1] is 0.0224 µM [rising, full curve, poor fit].

On to `CCCOc1ccc(C(=O)Nc2ccc(S(=O)(=O)Nc3cc(C)nc(C)n3)cc2)cc1`, for which the AC50 under setting [1] is 25.1 µM [falling, partial curve, poor fit].

For `CCOc1cc(/C=N/O)cc(Br)c1OCc1ccc(Cl)cc1`, the AC50 reads like this: under setting [2], 25.1 µM [falling, single point]; under setting [1], 35.5 µM [falling, single point].

For the compound `CC1=C/C(=N\OS(=O)(=O)c2ccccc2)C(C(C)C)=CC1=O`, the AC50 under setting [2] is 12.6 µM [falling, partial curve, poor fit] and the AC50 under setting [1] was 17.8 µM [falling, single point].

As for `Cc1ccccc1-c1nn2c(-c3ccccc3)nnc2s1`, the AC50 under setting [1] is 14.1 µM [rising, single point].

Take `O=C(NCc1ccccc1)c1ccc2c(=O)[nH]c3c(C(=O)NCC4CCCO4)sc(=S)n3c2c1` (configuration not stated): the AC50 under setting [1] is 0.891 µM [rising, partial curve, poor fit].

On to `O=C(Nc1nc(-c2ccc(Cl)cc2Cl)cs1)c1ccc(OCC2CCCO2)cc1` (configuration not stated), for which the AC50 is 1.12 µM [rising, full curve, poor fit] under setting [2] and 1.78 µM [rising, full curve] under setting [1].

For the compound `CC1CCCCN1C(C(=O)O)c1ccccc1` (configuration not stated), under setting [2], the AC50 is 35.5 µM [rising, single point].

As to `O=C(NCCN1C(=O)S/C(=C\c2ccc(OC(F)F)cc2)C1=O)c1cnccn1`, the AC50 under setting [1] is 14.1 µM [rising, single point].

For the compound `O=C(N/N=C/c1ccc(O)cc1)c1cc(-c2ccc3c(c2)OCO3)n[nH]1`, under setting [1], the AC50 was 22.4 µM [rising, single point].

For `O=C(OCC(=O)N1CCN(C(=O)c2ccco2)CC1)c1ccccc1OCc1ccc(Cl)cc1`, the AC50 is, setting by setting: under setting [2], 35.5 µM [rising, single point]; under setting [1], 35.5 µM [rising, single point].

On to `O=C(NCCc1ccccc1)C1CCN(Cc2cc3ccccc3n2Cc2cccc(Cl)c2)CC1`, for which the AC50 under setting [2] is 6.31 µM [falling, partial curve, poor fit].

For `COC(=O)CC1C(=O)NCCN1C(=S)Nc1cccc(C)c1` (configuration not stated), the AC50 is 0.2 µM [rising, single point] under setting [2] and 0.316 µM [rising, single point] under setting [1].

With `O=C(Nc1ccccc1)c1ccc(Br)c(S(=O)(=O)Nc2cccnc2)c1`, the AC50 under setting [2] is 5.62 µM [rising, single point].

In the case of `COc1cccc(Nc2sc(C(=O)c3ccc(Cl)cc3)c(N)c2C(=O)NCc2ccc(C)cc2)c1`, under setting [1], the AC50 was 2.82 µM [falling, partial curve, poor fit].

Turning to `COc1ccc(CCNC(=O)CN2CCN(c3cccc(C(F)(F)F)c3)CC2)cc1`, the AC50 under setting [1] was 35.5 µM [rising, single point].

As to `OC(c1ccccc1)c1nccc2ccccc12` (configuration not stated), the concentration at half-maximal activity (AC50) was 3.98 µM [falling, full curve] under setting [2] and 5.62 µM [falling, partial curve] under setting [1].

For the compound `CCOC(=O)C1=NN(c2ccc(Cl)cc2)C(c2ccccc2)CC1=O` (configuration not stated), the AC50 under setting [1] was 7.94 µM [rising, partial curve, poor fit].

Turning to `COc1ccc(C(NC(=O)c2cccc(F)c2)c2ccccc2)cc1` (configuration not stated), the AC50 under setting [1] is 35.5 µM [rising, single point].

Turning to `CCC(OC(C)=O)c1cc2c(cc1[N+](=O)[O-])OCCO2` (configuration not stated), the AC50 under setting [2] is 0.00398 µM [falling, full curve, poor fit] and the AC50 under setting [1] is 0.00316 µM [falling, full curve, poor fit].

With `O=c1cc(CSc2ccc(Cl)cc2)nc(N2CCCCC2)[nH]1`, the AC50 under setting [1] is 15.8 µM [rising, partial curve].

For the compound `Cc1nn2c(=O)cc(COC(=O)c3cccc(NC(=O)c4ccc(C(C)(C)C)cc4)c3)nc2s1`, the AC50 under setting [1] was 25.1 µM [rising, partial curve].

Regarding `CC(=O)c1ccc(NC(=O)C(C)OC(=O)c2ccc(NS(=O)(=O)c3ccc(F)c(F)c3)cc2)cc1` (configuration not stated), the AC50 under setting [2] was 4.47 µM [rising, partial curve] and the AC50 under setting [1] was 15.8 µM [rising, partial curve, poor fit].

As to `CC(=O)c1c(C)[nH]c(C(=O)OCC(=O)Nc2ccc(C)cc2[N+](=O)[O-])c1C`, the AC50 reads like this: under setting [2], 0.891 µM [rising, full curve, poor fit]; under setting [1], 1.41 µM [rising, full curve].

Regarding `CN(C1=C(N2CCOCC2)C(=O)c2ccccc2C1=O)c1ccccc1`, the AC50 under setting [1] is 17.8 µM [rising, partial curve, poor fit].

In the case of `CC(C)(C)C(=O)Nc1nnc(CC(=O)NCc2ccccc2)s1`, the AC50 runs as follows: under setting [2], 0.0891 µM [rising, full curve, poor fit]; under setting [1], 0.282 µM [rising, full curve, poor fit].

Consider `O=C(Cc1csc(-c2ccccc2)n1)NCc1ccccc1F`, for which the AC50 is, setting by setting: under setting [2], 12.6 µM [rising, partial curve]; under setting [1], 5.01 µM [rising, partial curve, poor fit].

On to `C#CCOCCOCCOCCNc1nc(N2CCN(C(=O)[C@H](C(C)C)n3cc(CCO)nn3)CC2)nc(N2CCN(C(=O)[C@H]([C@@H](C)CC)n3cc(CCCN=C(N)N)nn3)CC2)n1`, for which the AC50 under setting [1] is 1 µM [falling, full curve, poor fit].

Regarding `CNS(=O)(=O)c1ccc2nc(NC(=O)/C=C/c3ccco3)sc2c1`, the AC50 under setting [1] was 0.891 µM [falling, partial curve, poor fit].

Consider `O=c1[nH]c(CSc2nc3ccccc3o2)nc2c1cnn2-c1ccccc1`, for which the AC50 is, setting by setting: under setting [2], 17.8 µM [rising, single point]; under setting [1], 11.2 µM [rising, partial curve, poor fit].

In the case of `CN(C)S(=O)(=O)c1ccc(Oc2ccc(S(=O)(=O)N(C)C)cc2)cc1`, the AC50 under setting [1] was 10 µM [rising, partial curve, poor fit].

As to `COc1ccc(NC(=O)NNc2cc(N3CCOCC3)nc(N3CCOCC3)n2)cc1`, the AC50 under setting [2] is 3.16 µM [falling, partial curve, poor fit].

As for `Fc1cc(Br)ccc1NC(=S)Nc1ccccc1`, the AC50 under setting [1] is 31.6 µM [rising, single point].

Regarding `O=c1[nH]c2cc(Cl)ccc2c(O)c1-c1ccc(Oc2ccccc2)cc1`, the AC50 runs as follows: under setting [2], 0.000891 µM [falling, full curve, poor fit]; under setting [1], 0.000891 µM [falling, full curve, poor fit].

For `CCN(CC)S(=O)(=O)c1nnc(NC(=O)c2ccc(C(C)C)cc2)s1`, the AC50 under setting [1] was 11.2 µM [falling, partial curve, poor fit].

Consider `C=CC(=O)NC(NC(=O)C=C)c1ccc(Br)cc1`, for which the AC50 under setting [2] is 35.5 µM [falling, single point].

Turning to `COCCN(C(=O)Cc1cccs1)c1nnc(-c2cccnc2)s1`, the AC50 under setting [2] is 6.31 µM [rising, partial curve].

For `Cc1ccc(S(=O)(=O)N2CCC(=O)N(C(COCc3cccc(Cl)c3)Cc3ccccc3)CC2)cc1` (configuration not stated), the AC50 under setting [2] was 11.2 µM [rising, single point] and the AC50 under setting [1] is 31.6 µM [rising, single point].

As for `Cn1c(/C=C/N2CCOCC2)c(C(=O)c2ccc(Br)cc2)c(=O)n(C)c1=O`, under setting [1], the AC50 is 11.2 µM [rising, partial curve].

As to `CC(O)CC(C(=O)NNc1ccccc1)C(=O)NNc1ccccc1` (configuration not stated), the AC50 under setting [1] was 2.51 µM [rising, full curve].

For the compound `COc1ccc(CNC(=O)C2CCN(C(=O)N3CC(C)Oc4ccc(C)cc43)CC2)cc1` (configuration not stated), under setting [1], the AC50 was 8.91 µM [falling, full curve].

Take `O=C1OC(c2ccc(F)cc2)=N/C1=C\c1ccc(Br)o1`: under setting [1], the AC50 was 0.562 µM [falling, full curve, poor fit].

As for `CN(C)c1ccc(/C=N/NC(=O)c2ccccc2Cl)cc1`, the AC50 under setting [1] is 17.8 µM [rising, partial curve].

On to `O=C(c1cccs1)N1N=C(c2ccccc2)CC1c1ccccc1` (configuration not stated), for which, under setting [1], the AC50 was 15.8 µM [rising, single point].

In the case of `COc1ccc(NS(=O)(=O)c2ccc(N3CCOCC3)c(NC(=O)c3ccc(OC)cc3)c2)cc1`, under setting [1], the AC50 was 10 µM [rising, partial curve].

The term AC50 denotes the midpoint of the concentration-response curve, whichever way the signal moves.

Source of the values: PubChem BioAssay AID1487 (National Center for Advancing Translational Sciences (NCATS), 2009).
